Measured values: patent publication US6794491B1 (Takeda Chemical Industries, Ltd., priority 1995, dated 2004)

Test: general procedure: Boc solid-phase peptide synthesis; p-methyl-BHA resin; HOBt/DCC
Details: whole synthesis, scale 0.5 mmole

SRAHQHSMEIRTPDINPAWYAGRGIRPVGRF-NH2
crude mass: 290 mg
difficulty met: The Boc-Ala, Boc-Tyr (Br-Z), the condensation of which was found insufficient by ninhydrin test, was recondensed
isolated mass: 71 mg

Where no end group is shown, it is not given here.
